Test results taken from PMC10774444, “BPG4 regulates chloroplast development and homeostasis by suppressing GLK transcription factors and involving light and brassinosteroid signaling”.
The exact form of at least one protein or probe is not confirmed. For part of these data: A negative result means that nothing was seen under these conditions. For part of these data: At least one verdict was read from the data and is not stated in words by the source. For part of these data: The comparison behind a weaker result is the experiment's own reference, which may not be listed here. For part of these data: Where a protein sequence is shown, tags need not be part of it.

Amino acid sequences for entries named in this document (tags omitted). A change or cut given only in a name is not applied to a line headed by its entry.
UniProt Q9LN63: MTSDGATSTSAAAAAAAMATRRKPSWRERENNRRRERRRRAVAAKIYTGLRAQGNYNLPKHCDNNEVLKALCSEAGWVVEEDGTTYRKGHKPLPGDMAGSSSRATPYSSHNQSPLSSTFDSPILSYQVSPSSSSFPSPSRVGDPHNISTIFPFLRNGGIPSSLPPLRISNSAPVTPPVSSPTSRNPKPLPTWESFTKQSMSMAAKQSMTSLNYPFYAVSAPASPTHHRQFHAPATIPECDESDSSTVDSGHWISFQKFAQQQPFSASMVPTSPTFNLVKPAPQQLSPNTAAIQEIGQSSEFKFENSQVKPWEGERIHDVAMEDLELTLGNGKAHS

How the values were obtained:
MBP-BES1 DBD = MBP-BES1 DBD (UniProt Q9LN63); assay: EMSA; settings: GLK1 EMSA: 10 mM Tris-HCl pH 8.0, 50 mM KCl, 10 mM EDTA, 2.5% glycerol, 1 mM DTT, 0.05 ug/ul poly(dI-dC), 5 pmol probe; recombinant protein; protein details: MBP; label: FAM
GST-GLK1 = target: T1, GST-GLK1 (UniProt Q9SIV3); assay: EMSA; settings: plus MBP-BPG4 (full-length BPG4, molar ratio to GST-GLK1 1.4, 2.7, 5.4), dose-dependent decrease; GLK1 EMSA: 10 mM Tris-HCl pH 8.0, 50 mM KCl, 10 mM EDTA, 2.5% glycerol, 1 mM DTT, 0.05 ug/ul poly(dI-dC), 5 pmol probe; recombinant protein; residues 1-420; protein details: N-term GST (pGEX-6P-3); label: FAM
T1 sequence (looked up): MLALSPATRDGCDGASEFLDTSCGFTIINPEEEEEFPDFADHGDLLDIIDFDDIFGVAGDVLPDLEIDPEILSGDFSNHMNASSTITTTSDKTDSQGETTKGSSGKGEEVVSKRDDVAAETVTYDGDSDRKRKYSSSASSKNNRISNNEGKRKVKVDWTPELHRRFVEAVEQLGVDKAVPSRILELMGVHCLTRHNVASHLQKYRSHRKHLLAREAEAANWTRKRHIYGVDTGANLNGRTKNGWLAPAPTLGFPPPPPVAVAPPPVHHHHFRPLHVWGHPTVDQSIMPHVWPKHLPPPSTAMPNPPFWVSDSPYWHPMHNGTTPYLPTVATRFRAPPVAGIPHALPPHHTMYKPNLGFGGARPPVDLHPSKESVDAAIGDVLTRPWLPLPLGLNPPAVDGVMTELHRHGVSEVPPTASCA

Sequence | binding result (MBP-BES1 DBD) | binding result (GST-GLK1)
TGATCAATCTCCAAAAAAGGGCTTCTGGCC (double strand) [BPG4 mG-box-2] | no binding | –
GGGGCCATGGATAAAAAAGAGGATGCGTGA (double strand) [BPG4 mG-box-1] | no binding | –
TTTAGATCCCATGATTCTCAACACGACTGA (double strand) [CAO-probe] | – | binds more weakly
